Counter-ions that a name gives are not always drawn. The list shows a part of the results. The calls rarely recur for the same compound in another form.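 Kinases were expressed as nanoluciferase fusions in K562 cells and luminescence was read every 4 h between 2 and 18 h as percent of control, DMSO set to 100% and a positive control to 0%. A time point counts as decreased when the signal drops significantly (2 sigma). The hit call is the authors' own, does not follow from the count of time points alone, and its rule is not shown.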
What was measured:
Test in all cases: kinase-Nluc reporter destabilization hit call (1 = scored as downregulated) (binary); higher = compound decreases kinase abundance
Conditions in all cases: K562; 2-18 h
ABL1 = ABL1 (UniProt P00519)
AKT1 = AKT1 (UniProt P31749)
ALK = ALK (UniProt Q9UM73)
ARAF = ARAF (UniProt P10398)
AURKA = AURKA (UniProt O14965)
AURKB = AURKB (UniProt Q96GD4)
AURKC = AURKC (UniProt Q9UQB9)
BLK = BLK (UniProt P51451)
BMX = BMX (UniProt P51813)
BRAF = BRAF (UniProt P15056)
BRAF_V600E = system: BRAF_V600E
BTK = BTK (UniProt Q06187)
CAMK2A = CAMK2A (UniProt Q9UQM7)
CAMK2G = CAMK2G (UniProt Q13555)
CDK10 = CDK10 (UniProt Q15131)
CDK2 = CDK2 (UniProt P24941)
CDK3 = CDK3 (UniProt Q00526)
CDK4 = CDK4 (UniProt P11802)
CDK5 = CDK5 (UniProt Q00535)
CDK6 = CDK6 (UniProt Q00534)

Amino acid sequences for entries named in this document (tags omitted). A change or cut given only in a name is not applied to a line headed by its entry.
UniProt P00519, whole entry: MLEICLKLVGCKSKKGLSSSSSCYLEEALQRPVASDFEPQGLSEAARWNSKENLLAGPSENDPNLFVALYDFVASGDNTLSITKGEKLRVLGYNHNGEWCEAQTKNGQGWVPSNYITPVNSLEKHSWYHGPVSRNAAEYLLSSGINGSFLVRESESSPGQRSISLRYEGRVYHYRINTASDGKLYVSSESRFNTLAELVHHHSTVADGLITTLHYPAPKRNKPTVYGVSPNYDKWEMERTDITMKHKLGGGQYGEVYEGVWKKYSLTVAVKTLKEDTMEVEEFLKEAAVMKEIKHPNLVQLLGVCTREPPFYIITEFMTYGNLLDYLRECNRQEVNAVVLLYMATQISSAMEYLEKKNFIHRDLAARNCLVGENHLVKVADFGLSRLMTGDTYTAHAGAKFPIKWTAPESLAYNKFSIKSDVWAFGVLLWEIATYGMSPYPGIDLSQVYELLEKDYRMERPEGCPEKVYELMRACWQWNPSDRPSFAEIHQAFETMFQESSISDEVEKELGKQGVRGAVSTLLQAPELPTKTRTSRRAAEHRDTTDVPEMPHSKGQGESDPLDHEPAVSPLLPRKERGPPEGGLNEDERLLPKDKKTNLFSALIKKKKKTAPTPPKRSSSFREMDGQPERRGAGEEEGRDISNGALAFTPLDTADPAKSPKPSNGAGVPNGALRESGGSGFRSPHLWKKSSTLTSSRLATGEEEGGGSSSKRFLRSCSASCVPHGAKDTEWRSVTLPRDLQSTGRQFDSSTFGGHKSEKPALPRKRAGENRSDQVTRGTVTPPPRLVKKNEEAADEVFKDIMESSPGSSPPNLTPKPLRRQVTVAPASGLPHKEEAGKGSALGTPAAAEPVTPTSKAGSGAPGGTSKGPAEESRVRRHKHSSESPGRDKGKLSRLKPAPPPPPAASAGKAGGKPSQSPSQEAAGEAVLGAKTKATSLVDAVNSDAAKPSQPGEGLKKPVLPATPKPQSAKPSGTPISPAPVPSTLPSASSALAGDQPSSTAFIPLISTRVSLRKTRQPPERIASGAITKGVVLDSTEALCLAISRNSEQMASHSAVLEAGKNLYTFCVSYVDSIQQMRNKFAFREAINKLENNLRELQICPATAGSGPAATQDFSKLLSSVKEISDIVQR
UniProt Q9UM73: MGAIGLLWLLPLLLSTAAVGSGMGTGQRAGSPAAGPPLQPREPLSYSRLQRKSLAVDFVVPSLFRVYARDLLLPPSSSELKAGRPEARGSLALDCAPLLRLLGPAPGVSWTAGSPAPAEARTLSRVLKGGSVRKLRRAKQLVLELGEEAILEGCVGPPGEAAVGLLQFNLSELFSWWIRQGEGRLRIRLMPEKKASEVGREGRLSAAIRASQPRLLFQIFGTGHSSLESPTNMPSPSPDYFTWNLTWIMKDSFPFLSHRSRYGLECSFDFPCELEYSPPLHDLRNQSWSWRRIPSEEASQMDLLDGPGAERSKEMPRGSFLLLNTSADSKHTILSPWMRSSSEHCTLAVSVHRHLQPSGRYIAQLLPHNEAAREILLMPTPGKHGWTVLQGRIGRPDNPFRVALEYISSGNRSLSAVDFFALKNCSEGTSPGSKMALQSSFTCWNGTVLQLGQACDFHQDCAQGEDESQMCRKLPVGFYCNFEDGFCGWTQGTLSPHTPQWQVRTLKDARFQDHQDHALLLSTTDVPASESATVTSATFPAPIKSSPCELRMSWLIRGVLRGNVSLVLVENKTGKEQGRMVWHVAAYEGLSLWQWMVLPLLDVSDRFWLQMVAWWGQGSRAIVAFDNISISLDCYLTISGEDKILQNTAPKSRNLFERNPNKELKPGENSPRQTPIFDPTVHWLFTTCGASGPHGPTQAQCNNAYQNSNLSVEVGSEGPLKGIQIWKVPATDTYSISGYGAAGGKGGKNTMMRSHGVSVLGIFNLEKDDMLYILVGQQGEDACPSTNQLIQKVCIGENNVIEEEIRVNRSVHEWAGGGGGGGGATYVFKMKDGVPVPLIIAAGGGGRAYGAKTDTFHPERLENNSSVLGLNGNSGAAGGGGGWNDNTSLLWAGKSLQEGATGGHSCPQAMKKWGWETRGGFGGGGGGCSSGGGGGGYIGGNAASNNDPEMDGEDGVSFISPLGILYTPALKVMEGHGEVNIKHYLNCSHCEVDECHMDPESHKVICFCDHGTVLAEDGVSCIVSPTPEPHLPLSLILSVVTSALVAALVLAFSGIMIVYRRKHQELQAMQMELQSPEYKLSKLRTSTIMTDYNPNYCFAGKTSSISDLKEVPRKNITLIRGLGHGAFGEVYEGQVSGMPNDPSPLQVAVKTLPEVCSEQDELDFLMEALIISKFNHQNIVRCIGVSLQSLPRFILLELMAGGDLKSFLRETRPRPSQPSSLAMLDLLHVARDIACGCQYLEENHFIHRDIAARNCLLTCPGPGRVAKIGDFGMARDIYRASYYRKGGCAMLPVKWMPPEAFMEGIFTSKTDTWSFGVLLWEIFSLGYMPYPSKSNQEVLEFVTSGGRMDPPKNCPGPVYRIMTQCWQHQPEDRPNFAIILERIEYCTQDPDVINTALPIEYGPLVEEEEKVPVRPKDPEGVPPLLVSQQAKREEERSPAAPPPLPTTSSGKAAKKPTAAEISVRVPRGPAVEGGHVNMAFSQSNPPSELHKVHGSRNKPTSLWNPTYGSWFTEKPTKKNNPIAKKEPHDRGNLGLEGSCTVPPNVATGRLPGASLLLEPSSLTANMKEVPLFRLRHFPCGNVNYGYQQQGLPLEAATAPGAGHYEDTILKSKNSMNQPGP
UniProt O14965: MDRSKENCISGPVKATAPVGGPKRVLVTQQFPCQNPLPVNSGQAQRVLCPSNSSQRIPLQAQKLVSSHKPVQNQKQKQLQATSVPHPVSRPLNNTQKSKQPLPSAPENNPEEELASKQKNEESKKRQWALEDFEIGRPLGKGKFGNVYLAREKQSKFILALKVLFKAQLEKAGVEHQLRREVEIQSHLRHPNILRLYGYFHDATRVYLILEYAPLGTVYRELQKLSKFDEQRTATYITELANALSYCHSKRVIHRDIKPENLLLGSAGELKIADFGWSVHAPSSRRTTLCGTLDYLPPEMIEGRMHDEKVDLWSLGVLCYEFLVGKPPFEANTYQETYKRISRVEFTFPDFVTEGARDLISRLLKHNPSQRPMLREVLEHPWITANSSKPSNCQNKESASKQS
UniProt Q96GD4, whole entry: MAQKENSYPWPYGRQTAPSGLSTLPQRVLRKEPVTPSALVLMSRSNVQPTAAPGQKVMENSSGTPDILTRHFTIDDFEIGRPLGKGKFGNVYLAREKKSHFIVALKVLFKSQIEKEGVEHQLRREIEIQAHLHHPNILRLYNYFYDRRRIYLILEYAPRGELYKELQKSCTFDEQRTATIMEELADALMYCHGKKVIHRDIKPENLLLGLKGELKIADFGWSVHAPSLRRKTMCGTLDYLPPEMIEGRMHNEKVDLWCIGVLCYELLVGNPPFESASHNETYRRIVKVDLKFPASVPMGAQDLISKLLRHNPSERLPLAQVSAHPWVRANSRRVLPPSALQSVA
UniProt P51451: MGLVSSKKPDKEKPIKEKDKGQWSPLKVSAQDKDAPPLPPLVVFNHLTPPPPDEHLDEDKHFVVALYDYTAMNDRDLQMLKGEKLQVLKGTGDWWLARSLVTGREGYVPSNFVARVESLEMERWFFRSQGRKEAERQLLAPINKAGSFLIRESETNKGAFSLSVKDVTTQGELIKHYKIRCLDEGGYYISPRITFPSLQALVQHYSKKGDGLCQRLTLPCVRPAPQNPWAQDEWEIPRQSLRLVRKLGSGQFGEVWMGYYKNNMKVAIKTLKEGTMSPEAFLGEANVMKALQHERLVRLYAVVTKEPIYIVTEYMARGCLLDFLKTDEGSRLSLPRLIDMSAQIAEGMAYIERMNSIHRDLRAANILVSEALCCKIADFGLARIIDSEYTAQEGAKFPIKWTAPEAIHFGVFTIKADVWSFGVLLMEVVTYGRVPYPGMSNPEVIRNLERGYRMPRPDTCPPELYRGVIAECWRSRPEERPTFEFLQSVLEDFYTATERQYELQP
UniProt P15056, whole entry, looked up: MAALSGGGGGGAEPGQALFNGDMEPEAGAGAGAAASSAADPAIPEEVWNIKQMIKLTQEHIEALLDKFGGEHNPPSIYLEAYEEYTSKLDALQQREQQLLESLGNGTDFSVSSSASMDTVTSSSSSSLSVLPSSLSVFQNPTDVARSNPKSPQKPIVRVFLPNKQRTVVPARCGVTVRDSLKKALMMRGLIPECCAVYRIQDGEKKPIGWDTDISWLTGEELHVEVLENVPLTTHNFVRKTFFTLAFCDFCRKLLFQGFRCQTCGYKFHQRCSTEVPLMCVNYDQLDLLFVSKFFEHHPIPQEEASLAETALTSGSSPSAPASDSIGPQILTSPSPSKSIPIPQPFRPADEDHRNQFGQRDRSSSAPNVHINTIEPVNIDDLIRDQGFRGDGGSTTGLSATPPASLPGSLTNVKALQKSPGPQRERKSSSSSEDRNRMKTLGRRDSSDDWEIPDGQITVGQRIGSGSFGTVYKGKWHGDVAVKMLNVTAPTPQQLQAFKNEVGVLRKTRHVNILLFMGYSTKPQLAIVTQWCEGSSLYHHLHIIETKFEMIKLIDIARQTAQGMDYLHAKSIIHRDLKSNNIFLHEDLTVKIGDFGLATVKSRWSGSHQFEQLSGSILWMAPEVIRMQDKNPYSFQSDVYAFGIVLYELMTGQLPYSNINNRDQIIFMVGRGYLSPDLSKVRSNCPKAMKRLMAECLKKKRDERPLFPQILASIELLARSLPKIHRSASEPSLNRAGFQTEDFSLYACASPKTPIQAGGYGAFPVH
UniProt Q13555: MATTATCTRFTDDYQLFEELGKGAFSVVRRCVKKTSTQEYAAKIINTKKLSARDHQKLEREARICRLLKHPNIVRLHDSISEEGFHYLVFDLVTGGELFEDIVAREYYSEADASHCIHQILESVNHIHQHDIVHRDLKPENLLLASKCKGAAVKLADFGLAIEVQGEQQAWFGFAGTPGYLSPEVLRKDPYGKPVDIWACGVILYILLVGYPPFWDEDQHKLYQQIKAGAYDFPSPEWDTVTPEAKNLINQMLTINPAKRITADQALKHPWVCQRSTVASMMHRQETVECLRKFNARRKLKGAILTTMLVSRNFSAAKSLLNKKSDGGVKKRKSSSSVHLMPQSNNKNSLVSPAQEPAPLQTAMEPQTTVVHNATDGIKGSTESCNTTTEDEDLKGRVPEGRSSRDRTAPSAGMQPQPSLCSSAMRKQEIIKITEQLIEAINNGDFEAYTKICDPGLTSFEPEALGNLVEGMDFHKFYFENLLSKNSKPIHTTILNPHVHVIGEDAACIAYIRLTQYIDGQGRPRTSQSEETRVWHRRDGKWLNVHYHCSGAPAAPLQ
UniProt Q00526: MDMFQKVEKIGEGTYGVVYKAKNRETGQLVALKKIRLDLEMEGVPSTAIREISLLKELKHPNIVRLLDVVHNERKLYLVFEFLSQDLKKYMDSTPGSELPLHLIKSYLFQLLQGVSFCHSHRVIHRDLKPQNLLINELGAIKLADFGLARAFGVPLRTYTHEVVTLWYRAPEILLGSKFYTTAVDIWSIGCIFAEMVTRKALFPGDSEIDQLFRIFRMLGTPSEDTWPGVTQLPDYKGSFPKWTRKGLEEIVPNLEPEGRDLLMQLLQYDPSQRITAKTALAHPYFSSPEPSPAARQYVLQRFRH
UniProt P11802: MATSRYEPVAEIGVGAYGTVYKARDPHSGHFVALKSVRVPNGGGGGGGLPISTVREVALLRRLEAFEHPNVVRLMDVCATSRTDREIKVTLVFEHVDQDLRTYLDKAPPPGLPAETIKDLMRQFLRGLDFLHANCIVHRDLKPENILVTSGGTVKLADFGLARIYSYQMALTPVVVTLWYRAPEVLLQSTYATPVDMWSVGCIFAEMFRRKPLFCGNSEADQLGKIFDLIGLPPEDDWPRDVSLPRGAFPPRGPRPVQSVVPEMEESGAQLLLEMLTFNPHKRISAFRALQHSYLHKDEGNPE
UniProt Q00535, whole entry, looked up: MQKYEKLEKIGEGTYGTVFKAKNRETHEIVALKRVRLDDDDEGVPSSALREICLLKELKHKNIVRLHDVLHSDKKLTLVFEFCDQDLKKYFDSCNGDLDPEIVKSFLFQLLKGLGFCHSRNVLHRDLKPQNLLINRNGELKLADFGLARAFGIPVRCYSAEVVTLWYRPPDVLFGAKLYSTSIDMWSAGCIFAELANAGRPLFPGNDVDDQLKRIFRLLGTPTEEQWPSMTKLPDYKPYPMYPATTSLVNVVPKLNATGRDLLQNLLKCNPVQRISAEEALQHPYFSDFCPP
UniProt Q00534, whole entry: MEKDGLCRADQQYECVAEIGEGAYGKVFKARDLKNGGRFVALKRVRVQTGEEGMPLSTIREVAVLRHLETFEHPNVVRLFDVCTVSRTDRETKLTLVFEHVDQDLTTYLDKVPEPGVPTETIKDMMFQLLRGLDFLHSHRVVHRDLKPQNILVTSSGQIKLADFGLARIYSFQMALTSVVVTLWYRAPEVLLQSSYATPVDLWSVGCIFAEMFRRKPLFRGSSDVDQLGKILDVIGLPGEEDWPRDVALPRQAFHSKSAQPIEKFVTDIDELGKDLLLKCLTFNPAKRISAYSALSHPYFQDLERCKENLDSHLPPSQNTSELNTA

Row | Structure (SMILES) | kinase-Nluc reporter destabilization hit call (ABL1) | kinase-Nluc reporter destabilization hit call (AKT1) | kinase-Nluc reporter destabilization hit call (ALK) | kinase-Nluc reporter destabilization hit call (ARAF) | kinase-Nluc reporter destabilization hit call (AURKA) | kinase-Nluc reporter destabilization hit call (AURKB) | kinase-Nluc reporter destabilization hit call (AURKC) | kinase-Nluc reporter destabilization hit call (BLK) | kinase-Nluc reporter destabilization hit call (BMX) | kinase-Nluc reporter destabilization hit call (BRAF) | kinase-Nluc reporter destabilization hit call (BRAF_V600E) | kinase-Nluc reporter destabilization hit call (BTK) | kinase-Nluc reporter destabilization hit call (CAMK2A) | kinase-Nluc reporter destabilization hit call (CAMK2G) | kinase-Nluc reporter destabilization hit call (CDK10) | kinase-Nluc reporter destabilization hit call (CDK2) | kinase-Nluc reporter destabilization hit call (CDK3) | kinase-Nluc reporter destabilization hit call (CDK4) | kinase-Nluc reporter destabilization hit call (CDK5) | kinase-Nluc reporter destabilization hit call (CDK6)
1 | O=C(NC[C@H](O)CO)c1ccncc1Nc1ccc(I)cc1F [Pimasertib] (10 µM) | inactive: 0 | inactive: 0 | inactive: 0 | inactive: 0 | inactive: 0 | inactive: 0 | inactive: 0 | inactive: 0 | inactive: 0 | inactive: 0 | inactive: 0 | inactive: 0 | inactive: 0 | inactive: 0 | inactive: 0 | inactive: 0 | inactive: 0 | inactive: 0 | inactive: 0 | inactive: 0
2 | Cn1cc(C2=C(c3ccc(Cl)cc3Cl)C(=O)NC2=O)c2ccccc21 (10 µM) | inactive: 0 | inactive: 0 | inactive: 0 | inactive: 0 | inactive: 0 | inactive: 0 | inactive: 0 | inactive: 0 | inactive: 0 | inactive: 0 | inactive: 0 | inactive: 0 | inactive: 0 | inactive: 0 | inactive: 0 | inactive: 0 | inactive: 0 | inactive: 0 | inactive: 0 | inactive: 0
3 | NC(=O)c1sc2c([N+](=O)[O-])cc(C(F)(F)F)cc2[n+]1[O-] [Cyclapolin 9] (10 µM) | inactive: 0 | inactive: 0 | inactive: 0 | inactive: 0 | inactive: 0 | inactive: 0 | inactive: 0 | inactive: 0 | inactive: 0 | inactive: 0 | inactive: 0 | inactive: 0 | inactive: 0 | inactive: 0 | inactive: 0 | inactive: 0 | inactive: 0 | inactive: 0 | inactive: 0 | inactive: 0
4 | O=C(O)c1c[nH]c2cc(Cl)c(-c3ccc(C4(O)CCC4)cc3)cc12 (10 µM) | inactive: 0 | inactive: 0 | inactive: 0 | inactive: 0 | inactive: 0 | inactive: 0 | inactive: 0 | inactive: 0 | inactive: 0 | inactive: 0 | inactive: 0 | inactive: 0 | inactive: 0 | inactive: 0 | inactive: 0 | inactive: 0 | inactive: 0 | inactive: 0 | inactive: 0 | inactive: 0
5 | C[C@@H]1COC(Nc2ccc3ncnc(Nc4ccc(OCc5nccs5)c(Cl)c4)c3c2)=N1 [Varlitinib] (10 µM) | inactive: 0 | inactive: 0 | inactive: 0 | inactive: 0 | inactive: 0 | inactive: 0 | inactive: 0 | inactive: 0 | inactive: 0 | inactive: 0 | inactive: 0 | inactive: 0 | inactive: 0 | inactive: 0 | inactive: 0 | inactive: 0 | inactive: 0 | inactive: 0 | inactive: 0 | inactive: 0
6 | Cc1cc(N2CCOCC2)ccc1Nc1nc(NC2CCCCC2)c2[nH]cnc2n1 (10 µM) | inactive: 0 | inactive: 0 | inactive: 0 | inactive: 0 | inactive: 0 | inactive: 0 | inactive: 0 | inactive: 0 | inactive: 0 | inactive: 0 | inactive: 0 | inactive: 0 | inactive: 0 | inactive: 0 | inactive: 0 | inactive: 0 | inactive: 0 | inactive: 0 | inactive: 0 | inactive: 0
7 | CN1CCC(Nc2nc(Nc3ccc(Oc4ccccc4)cc3)c3c(=O)[nH]cc(Br)c3n2)CC1 (2.5 µM) | inactive: 0 | inactive: 0 | inactive: 0 | inactive: 0 | inactive: 0 | inactive: 0 | inactive: 0 | inactive: 0 | active: 1 | inactive: 0 | inactive: 0 | inactive: 0 | inactive: 0 | inactive: 0 | inactive: 0 | inactive: 0 | inactive: 0 | inactive: 0 | inactive: 0 | inactive: 0
8 | COc1cc(N2CCC(O)CC2)ccc1Nc1nc(Nc2ccccc2S(=O)(=O)C(C)C)c2[nH]cnc2n1 (10 µM) | inactive: 0 | inactive: 0 | inactive: 0 | inactive: 0 | inactive: 0 | inactive: 0 | inactive: 0 | inactive: 0 | inactive: 0 | inactive: 0 | inactive: 0 | inactive: 0 | inactive: 0 | inactive: 0 | inactive: 0 | inactive: 0 | inactive: 0 | inactive: 0 | inactive: 0 | inactive: 0
9 | CN1CCN(Cc2ccc(-c3cnc4[nH]cc(-c5ccc6[nH]ccc6c5)c4c3)cc2)CC1 (2.5 µM) | inactive: 0 | inactive: 0 | inactive: 0 | inactive: 0 | inactive: 0 | inactive: 0 | inactive: 0 | inactive: 0 | inactive: 0 | inactive: 0 | inactive: 0 | inactive: 0 | inactive: 0 | inactive: 0 | inactive: 0 | inactive: 0 | inactive: 0 | inactive: 0 | inactive: 0 | inactive: 0
10 | Nc1nccc(Oc2ccc3c(C(=O)Nc4cccc(C(F)(F)F)c4)cccc3c2)n1 (10 µM) | inactive: 0 | inactive: 0 | inactive: 0 | inactive: 0 | inactive: 0 | inactive: 0 | inactive: 0 | inactive: 0 | inactive: 0 | inactive: 0 | inactive: 0 | inactive: 0 | inactive: 0 | inactive: 0 | inactive: 0 | inactive: 0 | inactive: 0 | inactive: 0 | inactive: 0 | inactive: 0
11 | COc1c(O)cc(O)c2c(=O)cc(-c3ccccc3)oc12 [Wogonin] (10 µM) | inactive: 0 | inactive: 0 | inactive: 0 | inactive: 0 | inactive: 0 | inactive: 0 | inactive: 0 | inactive: 0 | inactive: 0 | inactive: 0 | inactive: 0 | inactive: 0 | inactive: 0 | inactive: 0 | inactive: 0 | inactive: 0 | inactive: 0 | inactive: 0 | inactive: 0 | inactive: 0
12 | O=C1NC(=O)C(Cc2c[nH]c3c(Cl)cccc23)N1 (stereo not given) [Necroptosis-IN-1] (10 µM) | inactive: 0 | inactive: 0 | inactive: 0 | inactive: 0 | inactive: 0 | inactive: 0 | inactive: 0 | inactive: 0 | inactive: 0 | inactive: 0 | inactive: 0 | inactive: 0 | inactive: 0 | inactive: 0 | inactive: 0 | inactive: 0 | inactive: 0 | inactive: 0 | inactive: 0 | inactive: 0
13 | CO/N=C1/C(c2c(O)[nH]c3cc(Cl)c(Cl)cc23)=Nc2ccccc21 (10 µM) | inactive: 0 | inactive: 0 | inactive: 0 | inactive: 0 | inactive: 0 | inactive: 0 | inactive: 0 | inactive: 0 | inactive: 0 | inactive: 0 | inactive: 0 | inactive: 0 | inactive: 0 | inactive: 0 | inactive: 0 | inactive: 0 | inactive: 0 | inactive: 0 | inactive: 0 | inactive: 0
14 | NC(=O)c1cnc(N[C@@H]2CCCC[C@@H]2N)nc1Nc1cccc(-n2nccn2)c1 (2.5 µM) | inactive: 0 | inactive: 0 | inactive: 0 | inactive: 0 | inactive: 0 | inactive: 0 | inactive: 0 | inactive: 0 | inactive: 0 | inactive: 0 | inactive: 0 | inactive: 0 | inactive: 0 | inactive: 0 | inactive: 0 | inactive: 0 | inactive: 0 | inactive: 0 | inactive: 0 | inactive: 0
15 | O=c1cc(N2CCOCC2)oc2c(-c3cccc4c3sc3ccccc34)cccc12 (10 µM) | inactive: 0 | inactive: 0 | inactive: 0 | inactive: 0 | inactive: 0 | inactive: 0 | inactive: 0 | inactive: 0 | inactive: 0 | inactive: 0 | inactive: 0 | inactive: 0 | inactive: 0 | inactive: 0 | inactive: 0 | inactive: 0 | inactive: 0 | inactive: 0 | inactive: 0 | inactive: 0
16 | N=C(NC(=N)N1CCCC1)Nc1ccc(OC(F)(F)F)cc1 (10 µM) | inactive: 0 | inactive: 0 | inactive: 0 | inactive: 0 | inactive: 0 | inactive: 0 | inactive: 0 | inactive: 0 | inactive: 0 | inactive: 0 | inactive: 0 | inactive: 0 | inactive: 0 | inactive: 0 | inactive: 0 | inactive: 0 | inactive: 0 | inactive: 0 | inactive: 0 | inactive: 0
17 | COc1ccc(CCNCc2ccc(OCc3ccc(Cl)nc3)c(OC)c2)cc1OC [SBE13 (Hydrochloride)] (10 µM) | inactive: 0 | inactive: 0 | inactive: 0 | inactive: 0 | inactive: 0 | inactive: 0 | inactive: 0 | inactive: 0 | inactive: 0 | inactive: 0 | inactive: 0 | inactive: 0 | inactive: 0 | inactive: 0 | inactive: 0 | inactive: 0 | inactive: 0 | inactive: 0 | inactive: 0 | inactive: 0
18 | COc1cc2nc(-c3cc(F)ccc3O)nc(N[C@@H]3CNC[C@H]3C(C)(C)O)c2cc1OC (2.5 µM) | inactive: 0 | inactive: 0 | inactive: 0 | inactive: 0 | inactive: 0 | inactive: 0 | inactive: 0 | inactive: 0 | inactive: 0 | inactive: 0 | inactive: 0 | inactive: 0 | inactive: 0 | inactive: 0 | inactive: 0 | inactive: 0 | inactive: 0 | inactive: 0 | inactive: 0 | inactive: 0

Records 3 to 6, quoted:
Row | Structure (SMILES) | kinase-Nluc reporter destabilization hit call (ABL1) | kinase-Nluc reporter destabilization hit call (AKT1) | kinase-Nluc reporter destabilization hit call (ALK) | kinase-Nluc reporter destabilization hit call (ARAF) | kinase-Nluc reporter destabilization hit call (AURKA) | kinase-Nluc reporter destabilization hit call (AURKB) | kinase-Nluc reporter destabilization hit call (AURKC) | kinase-Nluc reporter destabilization hit call (BLK) | kinase-Nluc reporter destabilization hit call (BMX) | kinase-Nluc reporter destabilization hit call (BRAF) | kinase-Nluc reporter destabilization hit call (BRAF_V600E) | kinase-Nluc reporter destabilization hit call (BTK) | kinase-Nluc reporter destabilization hit call (CAMK2A) | kinase-Nluc reporter destabilization hit call (CAMK2G) | kinase-Nluc reporter destabilization hit call (CDK10) | kinase-Nluc reporter destabilization hit call (CDK2) | kinase-Nluc reporter destabilization hit call (CDK3) | kinase-Nluc reporter destabilization hit call (CDK4) | kinase-Nluc reporter destabilization hit call (CDK5) | kinase-Nluc reporter destabilization hit call (CDK6)
3 | NC(=O)c1sc2c([N+](=O)[O-])cc(C(F)(F)F)cc2[n+]1[O-] [Cyclapolin 9] (10 µM) | inactive: 0 | inactive: 0 | inactive: 0 | inactive: 0 | inactive: 0 | inactive: 0 | inactive: 0 | inactive: 0 | inactive: 0 | inactive: 0 | inactive: 0 | inactive: 0 | inactive: 0 | inactive: 0 | inactive: 0 | inactive: 0 | inactive: 0 | inactive: 0 | inactive: 0 | inactive: 0
4 | O=C(O)c1c[nH]c2cc(Cl)c(-c3ccc(C4(O)CCC4)cc3)cc12 (10 µM) | inactive: 0 | inactive: 0 | inactive: 0 | inactive: 0 | inactive: 0 | inactive: 0 | inactive: 0 | inactive: 0 | inactive: 0 | inactive: 0 | inactive: 0 | inactive: 0 | inactive: 0 | inactive: 0 | inactive: 0 | inactive: 0 | inactive: 0 | inactive: 0 | inactive: 0 | inactive: 0
5 | C[C@@H]1COC(Nc2ccc3ncnc(Nc4ccc(OCc5nccs5)c(Cl)c4)c3c2)=N1 [Varlitinib] (10 µM) | inactive: 0 | inactive: 0 | inactive: 0 | inactive: 0 | inactive: 0 | inactive: 0 | inactive: 0 | inactive: 0 | inactive: 0 | inactive: 0 | inactive: 0 | inactive: 0 | inactive: 0 | inactive: 0 | inactive: 0 | inactive: 0 | inactive: 0 | inactive: 0 | inactive: 0 | inactive: 0
6 | Cc1cc(N2CCOCC2)ccc1Nc1nc(NC2CCCCC2)c2[nH]cnc2n1 (10 µM) | inactive: 0 | inactive: 0 | inactive: 0 | inactive: 0 | inactive: 0 | inactive: 0 | inactive: 0 | inactive: 0 | inactive: 0 | inactive: 0 | inactive: 0 | inactive: 0 | inactive: 0 | inactive: 0 | inactive: 0 | inactive: 0 | inactive: 0 | inactive: 0 | inactive: 0 | inactive: 0

Reference: the supplement of paper PMC12823440, “Inhibitors supercharge kinase turnover through native proteolytic circuits” (Nature, 2025)
